Measured data: PubChem BioAssay AID652243 (Drosophila RNAi Screening Center, 2013)

Screen: 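Fly regulators of androgen-dependent reporter output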 (primary screen)
Cell system: Drosophila S2R+ cells
Reagents: long dsRNA against Drosophila genes
Timing: 72 h (48 h, then 24 h hormone)
Treatment: synthetic androgen R1881 at 10 nM for 24 h
Detection: 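Per-well raw luminescence of the androgen-driven firefly reporter and of the Renilla control, two replicates each, without normalisation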
Scale: firefly reporter light: higher = more light from androgen-responsive reporter; Renilla control light: higher = more constitutive control signal (cell number, transfection)
Call rule: 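Hit when the log firefly-to-Renilla ratio dropped or increased by a fixed fold versus the mean of GFP or LacZ controls across duplicate plates; lowering cut given as 1.5 and as 3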
Meaning of the calls: active = hit: reporter lowered or raised; inactive = no hit
The screen tested about 24,000 reagents; shown is a random part of those with a known target gene and a result. Of all reagents, 246 (1%) are marked active. 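Plates not normalised; calls are printed but the firefly/Renilla ratio behind them is not deposited; fold cut for lowering reported inconsistently.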 Raw values vary from plate to plate and are shown uncorrected. Names joined by + are all predicted targets of the reagent. No sequences are given here. Not given: the amount of reagent.

target gene,amplicon,"firefly reporter light, replicate 1","firefly reporter light, replicate 2","Renilla control light, replicate 1","Renilla control light, replicate 2",Call
retn (retained),DRSC04679,2.37e5,3.09e5,1.91e6,2.30e6,inactive
retn (retained),DRSC27544,3.05e5,2.11e5,7.32e5,8.51e5,inactive
UQCR-Q (Ubiquinol-cytochrome c reductase ubiquinone-binding protein),DRSC10886,3.68e5,2.90e5,1.79e6,2.23e6,inactive
CG13481,DRSC10023,1.28e5,89371,1.41e6,1.19e6,inactive
CG13481,DRSC29353,4.84e5,5.16e5,1.06e6,1.06e6,inactive
Dbp45A (DEAD box protein 45A),DRSC07395,8.50e5,1.06e6,1.27e6,1.70e6,inactive
CG5250,DRSC15752,1.68e5,1.98e5,3.00e6,2.87e6,inactive
Irc (Immune-regulated catalase),DRSC16454,52096,75060,2.84e5,4.06e5,inactive
Irc (Immune-regulated catalase),DRSC28100,4.40e5,4.47e5,1.30e6,1.28e6,inactive
"DCTN4-p62 (Dynactin 4, p62 subunit)",DRSC06101,6.77e5,5.54e5,1.31e6,1.29e6,inactive
"DCTN4-p62 (Dynactin 4, p62 subunit)",DRSC27900,4.80e5,4.14e5,1.68e6,1.20e6,inactive
CG31111,DRSC14649,1.44e5,1.13e5,1.74e6,1.58e6,inactive
CG17564,DRSC02626,1.54e5,1.64e5,2.15e6,1.94e6,inactive
CG17564,DRSC26542,2.83e5,2.39e5,5.09e5,5.16e5,inactive

Continued (5 carried over from the part before).
target gene,amplicon,"firefly reporter light, replicate 1","firefly reporter light, replicate 2","Renilla control light, replicate 1","Renilla control light, replicate 2",Call
"DCTN4-p62 (Dynactin 4, p62 subunit)",DRSC06101,6.77e5,5.54e5,1.31e6,1.29e6,inactive
"DCTN4-p62 (Dynactin 4, p62 subunit)",DRSC27900,4.80e5,4.14e5,1.68e6,1.20e6,inactive
CG31111,DRSC14649,1.44e5,1.13e5,1.74e6,1.58e6,inactive
CG17564,DRSC02626,1.54e5,1.64e5,2.15e6,1.94e6,inactive
CG17564,DRSC26542,2.83e5,2.39e5,5.09e5,5.16e5,inactive
CG6592,DRSC10669,66614,75658,6.86e5,9.34e5,inactive
Rcd2 (Reduction in Cnn dots 2),DRSC11756,1.47e5,1.23e5,2.37e6,2.07e6,inactive
Ras64B (Ras oncogene at 64B),DRSC08689,1.05e5,70639,1.27e6,6.85e5,inactive
Ras64B (Ras oncogene at 64B),DRSC26766,3.32e5,2.68e5,1.04e6,6.08e5,inactive
CG34135 + CG11768,DRSC38826,1.50e6,1.22e6,2.19e6,1.70e6,inactive
lncRNA:sphinx (long non-coding RNA:sphinx),DRSC17199,2.32e5,3.05e5,3.26e6,3.57e6,inactive
CG15531,DRSC15068,2.45e5,2.71e5,1.73e6,2.82e6,inactive
CG15531,DRSC24882,9.73e5,8.37e5,9.74e5,7.41e5,inactive
CG15531,DRSC39079,8.58e5,5.99e5,1.99e6,1.96e6,inactive
"Alg10 (ALG10 alpha-1,2-glucosyltransferase)",DRSC10892,1.66e5,1.76e5,2.04e6,1.94e6,inactive
CG6435,DRSC06987,81099,78813,1.41e6,1.41e6,inactive
APC10 (Anaphase Promoting Complex subunit 10),DRSC06071,1.05e5,1.58e5,1.62e6,1.62e6,inactive
Traf-like (TNF-receptor-associated factor-like),DRSC19894,72901,1.40e5,6.00e5,6.17e5,inactive
CG12716,DRSC19493,6.81e5,5.06e5,3.35e6,3.10e6,inactive
CG12716,DRSC28802,1.07e6,8.87e5,1.64e6,1.39e6,inactive
Obp58d (Odorant-binding protein 58d),DRSC04162,2.27e5,2.13e5,1.77e6,1.61e6,inactive
CG7879,DRSC08600,2.69e5,2.56e5,5.25e5,5.07e5,inactive
CG7879,DRSC25308,6.68e5,5.90e5,7.80e5,9.67e5,inactive
CG15347,DRSC18031,3.15e5,3.77e5,3.13e6,3.71e6,inactive
PGRP-LE (Peptidoglycan recognition protein LE),DRSC20137,96646,1.48e5,7.39e5,7.58e5,inactive
AIMP1 (aaRS-interacting multifunctional protein 1),DRSC07118,2.59e5,1.77e5,2.50e6,1.89e6,inactive
AIMP1 (aaRS-interacting multifunctional protein 1),DRSC25922,2.28e5,2.52e5,6.92e5,5.37e5,inactive
U2af50 (U2 small nuclear riboprotein auxiliary factor 50),DRSC20297,76826,65222,5.57e5,5.10e5,inactive
U2af50 (U2 small nuclear riboprotein auxiliary factor 50),DRSC22867,4.69e5,1.09e6,4.29e5,6.41e5,inactive
CG8929,DRSC07298,8.28e5,4.61e5,1.18e6,9.67e5,inactive
CG8929,DRSC22847,4.82e5,7.83e5,8.62e5,1.90e6,inactive
